# Source: publication PMC12548414
# The whole screen tested about 1,600 compounds, of which about 20 (1%) showed an effect of 50% or more. Some of the results follow.
# Test system: T1, E. coli pLC1021 (luc-trpAt trans-translation reporter)
# T1 construct: pLC1021 luc-trpAt reporter strain
# Design: species or system Escherichia coli pLC1021; luc-trpAt non-stop luciferase reporter; luminescence rises when trans-translation is inhibited; normalized to KKL-35 and DMSO
# Settings: reporter signal, KKL-35 = 100%; rise means trans-translation inhibition; 2 h, 20 µM
# How it was run: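 Cells carrying the non-stop luc-trpAt reporter were exposed to 20 µM compound for 2 h at room temperature, then Bright-Glo was added and luminescence read at 560 nm after 10 min. Signals were normalised per plate to DMSO and 20 µM KKL-35 wells. Hits: activity one SD above the median; ≥2 biological repeats averaged.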
row,Compound,% activation [%]
1,O=C(C=Cc1ccco1)N1CCN(Cc2ccc3c(c2)OCO3)CC1 [KKL-1821],0
2,CSc1nsc(SCC(=O)Nc2ccc(OC(C)=O)cc2)n1 [KKL-1110],0
3,CCn1c(NCc2c(O)ccc3ccccc23)nc2ccccc21 [KKL-1357],0
4,Cc1ccc2[nH]c(C3CCCNC3)c(-c3ccncc3)c2c1 (centres unmarked) [KKL-1820],14
5,Cc1cccc(C2(O)CCN(Cc3[nH]c4ccccc4c3C)CC2)c1 [KKL-0557],2
6,O=C(COc1cccc2ccccc12)c1ccc(Cl)cc1 [KKL-1353],0
7,c1ccc(-c2nn(-c3ccccc3)cc2CNC2CCCc3c2cnn3-c2ccccn2)cc1 (centres unmarked) [KKL-1169],0
8,Cc1cc(/C=C/c2cccc(C(=O)O)c2)cc(Cl)c1OC[C@@H]1CCCN1C [KKL-1850],8
9,CCOC(=O)c1sc(NC(=O)CNCc2ccccn2)c(C(=O)OCC)c1C [KKL-0839],0
10,COc1ccc(-c2ccc(Nc3cccc(S(=O)(=O)CCNCCc4cccs4)c3)nc2)cn1 [KKL-1750],0
11,Clc1ccc2c(c1)C1=C(C(c3ccncc3)O2)C(c2ccc(Br)cc2)n2ncnc2N1 (centres unmarked) [KKL-0378],0
12,CCOc1ccccc1NC(=O)CN1CCC(C(=O)c2ccc(F)cc2)CC1 [KKL-1265],3
13,CN(C)c1ccc(/C=C/c2nc3ccccc3c(=O)n2-c2ccccc2)cc1 [KKL-1244],4
14,CCOc1ccc(C2c3[nH]c4ccccc4c3CCN2Cc2cnc(SC)nc2)cc1 (centres unmarked) [KKL-0480],0
15,CC(C)c1noc(N2CCC(C(C)Oc3cnc(-c4ccc(S(C)(=O)=O)c(F)c4)cn3)CC2)n1 (centres unmarked) [KKL-1810],0
16,Cc1oc2ccccc2c1CN(CCCn1ccnc1)Cc1cccc(F)c1 [KKL-0544],0
17,CCC(C)c1ccc(O)c(NC(=S)NC(=O)c2cccnc2)c1 (centres unmarked) [KKL-0436],17
18,CCOc1ccc2nc3cc(N)ccc3c(N)c2c1 [KKL-1485],1
19,O=C(NC12CC3CC(CC(C3)C1)C2)N1CCN(c2cccc(C(F)(F)F)c2)CC1 [KKL-1309],3
20,O=C(NC(=S)Nc1ccc(F)cc1)c1ccc(Br)cc1 [KKL-0408],0
21,N#Cc1ccc(NC(=O)CSc2ccc(Br)cc2)cc1 [KKL-1577],0
22,CCOC(=O)C1(CC2CC2)CCN(Cc2ccc(OC)c(C)c2C)CC1 [KKL-1176],0

row,Compound,% activation [%]
1,CCCCNCC1COc2ccc(OC)cc2C1=O (centres unmarked) [KKL-1732],0
2,c1ccc2sc(NC3=NCN(Cc4ccc5c(c4)OCO5)CN3)nc2c1 [KKL-0573],2
3,Cn1nc2c(c1C(=O)N1CCc3c([nH]c4ccccc34)C1c1ccccc1F)CCCC2 (centres unmarked) [KKL-0491],0
4,Cc1cccc(-n2cc(CN3CCN(c4ccncc4)CC3)c(-c3cccc(F)c3)n2)c1 [KKL-0498],0
5,CCOc1ccc(-c2nc(CNCCc3ccc(F)cc3)cs2)cc1 [KKL-1803],0
6,COC(=O)c1ccc(-c2nc(CN3CCC4(C=Cc5ccccc54)CC3)c(C)o2)cc1 [KKL-1167],5
7,CC(C)n1cc(CN2CCC(C(=O)Nc3cccc(-c4cccc(Cl)c4)c3)CC2)cn1 [KKL-0628],0
8,Cc1ccc(CN(CCCn2ccnc2)Cc2cc3c(cc2Cl)OCO3)s1 [KKL-0509],2
9,Cc1cc(C(C)(C)C)ccc1OCCCCn1ccnc1 [KKL-1326],12
10,CC1CN(c2ccc([N+](=O)[O-])cc2)CCN1C(=O)c1cccc(Br)c1 (centres unmarked) [KKL-1355],0
11,CC(=O)c1cccc(Nc2cc(C)nc3c2ccc2ccccc23)c1 [KKL-0859],0
12,CCOC(=O)c1ccc(NC(=S)NC(=O)CCc2ccccc2)cc1 [KKL-1432],0
13,COc1cccc(N2CCN(Cc3nc(N)nc(Nc4ccc(C)c(Cl)c4)n3)CC2)c1 [KKL-1239],0
14,C=CCOc1ccc(CN2C[C@@H](CN(C)C)[C@H](c3ccnc(N4CCCC4)n3)C2)cc1 [KKL-0449],0
15,O=C(Nc1ccc2c(c1)OCCO2)c1cccc2nc3ccccc3nc12 [KKL-0843],0
16,O=C(NCCc1c[nH]c2ccccc12)c1cc2ccccc2oc1=O [KKL-0841],0
17,Cc1ccc(C(=O)Nc2nc(C)c(C(=O)Nc3ccc4c(c3)CCC4)s2)cc1 [KKL-1668],0
18,Cn1nc(-c2ccco2)cc1[C@H]1CN2CC[C@H]1C[C@@H]2COC(=O)Nc1cccc(C(F)(F)F)c1 [KKL-1589],0
19,Cc1ccc(-c2csc(Nc3ccc(N)cc3)n2)cc1 [KKL-0538],0
20,COC(=O)[C@@H]1Cc2c([nH]c3ccccc23)[C@@H]2C[C@H](NCCCn3ccnc3)C[C@@H](c3ccc(F)c(F)c3)N12 [KKL-1605],1
21,Cc1cc(NCCc2ccccc2)nc(NC(=N)Nc2ccc(Cl)cc2)n1 [KKL-1786],3
22,CC(=O)NC(=S)NNC(=O)c1ccc(-c2ccccc2)cc1 [KKL-0063],99

row,Compound,% activation [%]
1,CCOC(=O)C1(CCc2ccccc2)CCN(C(=O)Nc2ccc(SC)cc2)CC1 [KKL-1179],2
2,Nc1ccccc1Nc1ccc(Cl)cc1 [KKL-1846],3
3,OCCN1CCN(c2nc(-c3ccccc3)nc3c2oc2ccccc23)CC1 [KKL-0954],12
4,CCCCCCCCCCn1c2c(c(=N)c3c1CCC3)CCC2 [KKL-0884],12
5,C=CCn1c(Sc2ccc(C(F)(F)F)cc2[N+](=O)[O-])nnc1-c1ccccc1Cl [KKL-1285],5
6,Cc1oc(-c2cccs2)nc1CN1CCc2c([nH]c3ccccc23)C1c1ccccn1 (centres unmarked) [KKL-0484],6
7,Clc1ccc(OCCCCn2ccnc2)cc1Cl [KKL-1382],7
8,CCCn1c(CNc2ccccc2O)nc2ccccc21 [KKL-1474],0
9,O=C(CCCSc1nnc(SCCCC(=O)c2ccc(F)cc2)s1)c1ccc(F)cc1 [KKL-1094],2
10,CCOC(=O)N1CCN(CCC(=O)c2ccc(Cl)cc2)CC1 [KKL-1065],0
11,CCn1nnc(NC(=O)COc2ccc(C3CCCCC3)cc2)n1 [KKL-0733],8
12,Cn1cc(CNCc2ccc3c(c2)OCO3)c(-c2ccc(C3CCCCC3)cc2)n1 [KKL-0640],0
13,c1cnc2c(c1)ccc1cccnc12 [KKL-0825],8
14,COc1ccc(C(C)(C)C)cc1N=C(S)Nc1ccc(Cl)c(Cl)c1 [KKL-1535],0
15,COc1ccc(C(=O)Oc2cccc3cccnc23)cc1[N+](=O)[O-] [KKL-1648],0
16,COc1ccccc1NC(=O)CSc1nc2cc3ccccc3cc2[nH]1 [KKL-0600],1
17,O=C(NCc1cnn(-c2cccc(F)c2)c1)c1cc(COc2cccc3cccnc23)on1 [KKL-0634],2
18,CCOC(=O)CSc1ccc(-c2nc3ccccc3[nH]2)cn1 [KKL-1646],0
19,CC(C)(C)/C(O)=C\C=Nc1ccccc1O [KKL-0979],0
20,O=C(Oc1ccc(F)cc1)c1ccc(Oc2ccc([N+](=O)[O-])cc2)cc1 [KKL-0916],0
21,Clc1ccc(SCCCn2ccnc2)cc1 [KKL-1316],1
22,COc1ccc(-n2cc(CNCCCn3ccnc3)c(-c3cccc(F)c3)n2)cc1 [KKL-1129],2

row,Compound,% activation [%]
1,Clc1ccc(COC(Cn2ccnc2)c2ccc(Cl)cc2Cl)c(Cl)c1 (centres unmarked) [KKL-0381],0
2,Nc1ncnc(Oc2cccc3cccnc23)c1[N+](=O)[O-] [KKL-0353],0
3,O=C(NCc1nnc2c3ccccc3c(-c3ccccc3)nn12)c1ccc(Cl)cc1 [KKL-0873],0
4,CCCCS(=O)(=O)Nc1ccc2cnn(C)c2c1 [KKL-1802],0
5,Clc1nnc(N2CCCC2)c2ccccc12 [KKL-1738],0
6,CCc1nnc(NC(=O)c2cc3ccccc3oc2=O)s1 [KKL-1658],0
7,OC(CN1CCC2(CC1)CC(O)c1cc(Cl)ccc1O2)c1ccc2c(c1)CCC2 (centres unmarked) [KKL-0706],1
8,COc1ccc(F)c(-c2nc(CN3CCN(c4ncc5ccccc5n4)CC3)c(C)o2)c1 [KKL-0478],3
9,Cc1cc(N2CCCCC2)nc(N2CCC(O)(Cc3ccccc3)CC2)n1 [KKL-1214],9
10,Cc1ccccc1OCc1n(CC(=O)OC2CC(C)CCC2C(C)C)c2ccccc2[n+]1C (centres unmarked) [KKL-0845],0
11,Cc1ccc(-n2cc(CN3CCN(C(=O)c4ccco4)CC3)c(-c3ccc(F)cc3)n2)cc1 [KKL-1162],0
12,Clc1cc(Br)ccc1OCCCCn1ccnc1 [KKL-1286],0
13,Cc1cc([N+](=O)[O-])ccc1NC(=O)CN1C2CCC1CC(NC(=O)NC13CC4CC(CC(C4)C1)C3)C2 (centres unmarked) [KKL-1619],0
14,Cc1ccc(-c2ccc(/C=C/C(=O)c3ccco3)o2)cc1 [KKL-0778],0
15,COc1cc(NC(=O)C(Cl)Cl)c(OC)cc1Cl [KKL-0757],0
16,O=C(Nc1ccc(N2CCN(C(=O)c3ccccc3)CC2)cc1)c1ccc([N+](=O)[O-])o1 [KKL-0631],0
17,CCCn1nnnc1NC(=O)c1cccs1 [KKL-1240],13
18,CC1CCc2nc3sc4c(c3c(N)c2C1)CCCC4 (centres unmarked) [KKL-1424],0
19,COc1ccc(N2CCN(Cc3nc(N)nc(Nc4ccc(C)c(Cl)c4)n3)CC2)cc1 [KKL-1030],7
20,O=C(Nc1cccc(-c2ccco2)c1)C1CCN(C2Cc3ccccc3C2)CC1 [KKL-0457],0
